# Screen size: about 320,000 compounds; about 480 (0.15%) were called active. This list was built around the results that the source calls inconclusive (neither active nor inactive); the mix of calls is not that of the screen. No stated cut-off is given here; in the data, active means inhibition above about 26% (passing the limit was not always enough); inconclusive means no clear call, values can overlap the other calls.
# Sequences of proteins named here, by UniProt entry; tags and fusion partners are left off. A change or cut given only in a name is not applied to a line headed by its entry.
# UniProt O15379: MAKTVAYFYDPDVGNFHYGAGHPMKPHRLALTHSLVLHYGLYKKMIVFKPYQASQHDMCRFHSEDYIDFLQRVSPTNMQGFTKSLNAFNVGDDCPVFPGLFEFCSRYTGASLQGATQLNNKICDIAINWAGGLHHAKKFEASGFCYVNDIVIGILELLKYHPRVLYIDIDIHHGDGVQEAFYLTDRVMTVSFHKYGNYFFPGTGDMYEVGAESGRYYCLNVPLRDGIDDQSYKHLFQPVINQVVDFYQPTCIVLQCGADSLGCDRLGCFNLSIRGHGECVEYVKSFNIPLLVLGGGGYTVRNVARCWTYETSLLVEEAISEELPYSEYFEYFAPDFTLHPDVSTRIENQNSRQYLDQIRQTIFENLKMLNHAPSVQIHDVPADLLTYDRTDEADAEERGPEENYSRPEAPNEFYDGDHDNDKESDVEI
# Target: Histone deacetylase 3 (Homo sapiens) (UniProt O15379)
# Assay: HDAC3 deacetylase inhibitors, primary screen, biochemical, fluorescence, cell-free homogeneous (AID 2718)
# Settings: recombinant HDAC3, fluorogenic peptide/trypsin coupled, at 8.3 µM, active compounds read high
row,Compound,inhibition
1,CS(=O)(=O)C1=NSC2=NC(=O)/C(=C\c3ccc(OC(=O)c4ccco4)c(Br)c3)C(=N)N21,inconclusive: 24.1%
